From patent US20170000857A1
These are yes or no findings as the source states them, for the method shown. Binding seen in cells or lysates may run through a third protein. Some binding calls cover weakened binding; strength is not graded here. One block for each molecule: values may come before it.

Protein sequences, listed by entry. Tags and fused reporters are not part of them. Lines headed by an entry give the natural chain unless they say otherwise; changes in a name come on top.
UniProt Q8TCU4: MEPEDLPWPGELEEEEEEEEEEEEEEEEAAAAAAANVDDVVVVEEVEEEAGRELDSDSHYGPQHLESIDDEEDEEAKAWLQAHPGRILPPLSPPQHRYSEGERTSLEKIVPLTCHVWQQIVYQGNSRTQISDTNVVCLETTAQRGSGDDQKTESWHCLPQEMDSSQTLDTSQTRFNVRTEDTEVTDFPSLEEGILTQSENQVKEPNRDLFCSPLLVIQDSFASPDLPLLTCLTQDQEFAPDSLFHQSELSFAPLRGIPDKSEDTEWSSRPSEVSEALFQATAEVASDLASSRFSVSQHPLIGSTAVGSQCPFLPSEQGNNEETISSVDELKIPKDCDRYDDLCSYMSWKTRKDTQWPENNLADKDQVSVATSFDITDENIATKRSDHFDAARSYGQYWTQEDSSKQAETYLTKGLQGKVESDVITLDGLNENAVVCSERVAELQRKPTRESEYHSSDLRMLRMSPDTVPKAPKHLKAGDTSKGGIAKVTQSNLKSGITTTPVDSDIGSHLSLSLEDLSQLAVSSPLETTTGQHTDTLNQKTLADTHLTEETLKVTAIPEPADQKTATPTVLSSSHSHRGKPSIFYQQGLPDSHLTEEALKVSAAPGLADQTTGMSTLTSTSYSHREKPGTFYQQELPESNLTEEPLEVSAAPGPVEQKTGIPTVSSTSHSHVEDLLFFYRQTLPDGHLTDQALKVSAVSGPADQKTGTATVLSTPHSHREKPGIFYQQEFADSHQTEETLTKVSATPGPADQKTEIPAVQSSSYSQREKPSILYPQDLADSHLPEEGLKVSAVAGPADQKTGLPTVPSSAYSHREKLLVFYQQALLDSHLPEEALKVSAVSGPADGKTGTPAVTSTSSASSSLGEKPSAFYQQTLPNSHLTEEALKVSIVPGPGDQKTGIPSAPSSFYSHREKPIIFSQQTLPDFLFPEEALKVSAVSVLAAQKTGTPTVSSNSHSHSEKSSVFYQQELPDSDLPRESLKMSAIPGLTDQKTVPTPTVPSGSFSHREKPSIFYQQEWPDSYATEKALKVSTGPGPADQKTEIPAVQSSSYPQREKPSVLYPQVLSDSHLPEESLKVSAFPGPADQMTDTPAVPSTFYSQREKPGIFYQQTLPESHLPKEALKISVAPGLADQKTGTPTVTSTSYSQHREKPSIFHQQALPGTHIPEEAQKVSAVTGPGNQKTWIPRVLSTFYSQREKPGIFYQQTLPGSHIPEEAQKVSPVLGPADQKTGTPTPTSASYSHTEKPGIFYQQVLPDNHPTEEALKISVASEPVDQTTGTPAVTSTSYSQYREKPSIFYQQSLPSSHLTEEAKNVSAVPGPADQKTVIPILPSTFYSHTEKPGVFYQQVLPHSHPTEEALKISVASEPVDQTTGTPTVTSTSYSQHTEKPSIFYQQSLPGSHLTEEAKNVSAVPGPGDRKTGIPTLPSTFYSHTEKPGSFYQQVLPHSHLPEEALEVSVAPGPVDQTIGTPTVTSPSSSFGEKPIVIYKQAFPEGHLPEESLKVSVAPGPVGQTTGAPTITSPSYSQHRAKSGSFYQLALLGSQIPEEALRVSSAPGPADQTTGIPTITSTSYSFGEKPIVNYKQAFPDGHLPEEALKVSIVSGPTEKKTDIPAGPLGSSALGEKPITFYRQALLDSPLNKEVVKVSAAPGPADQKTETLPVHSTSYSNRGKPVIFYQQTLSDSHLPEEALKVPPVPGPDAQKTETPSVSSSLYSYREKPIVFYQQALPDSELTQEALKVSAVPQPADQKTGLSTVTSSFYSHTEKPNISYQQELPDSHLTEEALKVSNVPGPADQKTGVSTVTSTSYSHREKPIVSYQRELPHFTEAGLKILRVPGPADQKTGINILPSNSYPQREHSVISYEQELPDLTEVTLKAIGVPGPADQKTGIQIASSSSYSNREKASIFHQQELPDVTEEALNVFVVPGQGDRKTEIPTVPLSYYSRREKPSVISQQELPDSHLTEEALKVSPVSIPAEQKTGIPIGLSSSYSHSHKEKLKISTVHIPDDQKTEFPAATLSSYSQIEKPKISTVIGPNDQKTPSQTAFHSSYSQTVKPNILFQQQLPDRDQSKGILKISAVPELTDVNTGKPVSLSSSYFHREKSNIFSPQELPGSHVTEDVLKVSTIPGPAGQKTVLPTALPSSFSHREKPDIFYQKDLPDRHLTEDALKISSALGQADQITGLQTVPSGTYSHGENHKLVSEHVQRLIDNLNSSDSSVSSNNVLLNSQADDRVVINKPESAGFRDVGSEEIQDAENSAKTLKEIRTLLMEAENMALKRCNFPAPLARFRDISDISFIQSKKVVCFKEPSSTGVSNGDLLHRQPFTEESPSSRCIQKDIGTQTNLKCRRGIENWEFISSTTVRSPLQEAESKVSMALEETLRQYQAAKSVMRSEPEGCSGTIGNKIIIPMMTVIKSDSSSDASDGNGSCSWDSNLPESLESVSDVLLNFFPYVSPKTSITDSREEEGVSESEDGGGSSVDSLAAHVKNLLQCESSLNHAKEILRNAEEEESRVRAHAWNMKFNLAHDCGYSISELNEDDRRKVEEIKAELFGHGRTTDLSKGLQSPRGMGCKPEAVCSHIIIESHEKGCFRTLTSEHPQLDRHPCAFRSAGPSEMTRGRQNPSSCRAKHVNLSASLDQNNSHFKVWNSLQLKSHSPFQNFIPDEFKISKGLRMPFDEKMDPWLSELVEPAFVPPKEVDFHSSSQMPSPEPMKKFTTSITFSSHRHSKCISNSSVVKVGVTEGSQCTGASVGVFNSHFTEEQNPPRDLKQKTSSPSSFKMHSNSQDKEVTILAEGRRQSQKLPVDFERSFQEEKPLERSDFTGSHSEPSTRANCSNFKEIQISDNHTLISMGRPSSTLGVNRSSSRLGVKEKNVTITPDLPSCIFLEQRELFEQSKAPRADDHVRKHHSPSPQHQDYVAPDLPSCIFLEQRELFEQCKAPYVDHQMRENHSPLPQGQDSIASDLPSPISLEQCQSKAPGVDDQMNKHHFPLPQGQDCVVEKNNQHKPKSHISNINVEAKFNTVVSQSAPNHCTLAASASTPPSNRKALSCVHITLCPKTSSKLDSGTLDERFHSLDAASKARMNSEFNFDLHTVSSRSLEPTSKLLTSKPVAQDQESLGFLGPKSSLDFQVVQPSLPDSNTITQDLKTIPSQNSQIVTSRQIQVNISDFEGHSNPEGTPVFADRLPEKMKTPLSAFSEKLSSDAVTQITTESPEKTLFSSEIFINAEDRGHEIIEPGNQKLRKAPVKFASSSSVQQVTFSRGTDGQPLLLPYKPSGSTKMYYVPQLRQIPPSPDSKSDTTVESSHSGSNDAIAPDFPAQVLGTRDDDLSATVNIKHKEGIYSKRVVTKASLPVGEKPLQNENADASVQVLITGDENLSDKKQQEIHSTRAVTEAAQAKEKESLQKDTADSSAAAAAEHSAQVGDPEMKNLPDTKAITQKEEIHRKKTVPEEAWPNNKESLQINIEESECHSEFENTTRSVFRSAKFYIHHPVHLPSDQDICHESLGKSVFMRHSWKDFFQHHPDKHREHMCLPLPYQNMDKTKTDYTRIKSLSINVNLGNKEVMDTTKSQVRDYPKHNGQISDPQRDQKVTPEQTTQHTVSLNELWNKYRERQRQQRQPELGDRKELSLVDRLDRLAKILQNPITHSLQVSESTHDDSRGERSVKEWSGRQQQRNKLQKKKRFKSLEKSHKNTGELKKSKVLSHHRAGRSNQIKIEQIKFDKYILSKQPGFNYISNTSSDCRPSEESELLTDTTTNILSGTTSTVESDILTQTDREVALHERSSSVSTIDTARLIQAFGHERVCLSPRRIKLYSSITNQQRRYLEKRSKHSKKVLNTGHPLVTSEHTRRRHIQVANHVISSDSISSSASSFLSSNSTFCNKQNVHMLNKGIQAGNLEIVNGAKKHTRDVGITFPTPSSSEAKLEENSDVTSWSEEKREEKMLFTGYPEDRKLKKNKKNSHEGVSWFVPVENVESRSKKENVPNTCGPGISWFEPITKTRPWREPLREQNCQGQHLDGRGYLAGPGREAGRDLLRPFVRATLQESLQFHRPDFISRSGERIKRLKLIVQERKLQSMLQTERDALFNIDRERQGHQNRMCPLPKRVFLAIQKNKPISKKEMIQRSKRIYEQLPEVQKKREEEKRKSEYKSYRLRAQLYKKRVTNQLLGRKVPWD

What was measured:
[1] = biological target: ALMS1 (Alstrom syndrome protein 1) (human) (UniProt Q8TCU4); test: co-immunoprecipitation with ALMS1 as bait, immunoblot; human mature adipocytes cultured without insulin
[2] = biological target: ALMS1 (Alstrom syndrome protein 1) (human) (UniProt Q8TCU4); test: co-immunoprecipitation with ALMS1 as bait, immunoblot; human mature adipocytes cultured with insulin

- binding [1]: binds
Molecule: Protein kinase C alpha type (αPKC) (from UniProt P17252 2-672) (enzyme)

- binding [2]: binds
B1: TBC1D4 (TBC1 domain family member 4) (protein)
chain: MEPPSCIQDEPFPHPLEPEPGVSAQPGPGKPSDKRFRLWYVGGSCLDHRTTLPMLPWLMAEIRRRSQKPEAGGCGAPAAREVILVLSAPFLRCVPAPGAGASGGTSPSATQPNPAVFIFEHKAQHISRFIHNSHDLTYFAYLIKAQPDDPESQMACHVFRATDPSQVPDVISSIRQLSKAAMKEDAKPSKDNEDAFYNSQKFEVLYCGKVTVTHKKAPSSLIDDCMEKFSLHEQQRLKIQGEQRGPDPGEDLADLEVVVPGSPGDCLPEEADGTDTHLGLPAGASQPALTSSRVCFPERILEDSGFDEQQEFRSRCSSVTGVQRRVHEGSQKSQPRRRHASAPSHVQPSDSEKNRTMLFQVGRFEINLISPDTKSVVLEKNFKDISSCSQGIKHVDHFGFICRESPEPGLSQYICYVFQCASESLVDEVMLTLKQAFSTAAALQSAKTQIKLCEACPMHSLHKLCERIEGLYPPRAKLVIQRHLSSLTDNEQADIFERVQKMKPVSDQEENELVILHLRQLCEAKQKTHVHIGEGPSTISNSTIPENATSSGRFKLDILKNKAKRSLTSSLENIFSRGANRMRGRLGSVDSFERSNSLASEKDYSPGDSPPGTPPASPPSSAWQTFPEEDSDSPQFRRRAHTFSHPPSSTKRKLNLQDGRAQGVRSPLLRQSSSEQCSNLSSVRRMYKESNSSSSLPSLHTSFSAPSFTAPSFLKSFYQNSGRLSPQYENEIRQDTASESSDGEGRKRTSSTCSNESLSVGGTSVTPRRISWRQRIFLRVASPMNKSPSAMQQQDGLDRNELLPLSPLSPTMEEEPLVVFLSGEDDPEKIEERKKSKELRSLWRKAIHQQILLLRMEKENQKLEASRDELQSRKVKLDYEEVGACQKEVLITWDKKLLNCRAKIRCDMEDIHTLLKEGVPKSRRGEIWQFLALQYRLRHRLPNKQQPPDISYKELLKQLTAQQHAILVDLGRTFPTHPYFSVQLGPGQLSLFNLLKAYSLLDKEVGYCQGISFVAGVLLLHMSEEQAFEMLKFLMYDLGFRKQYRPDMMSLQIQMYQLSRLLHDYHRDLYNHLEENEISPSLYAAPWFLTLFASQFSLGFVARVFDIIFLQGTEVIFKVALSLLSSQETLIMECESFENIVEFLKNTLPDMNTSEMEKIITQVFEMDISKQLHAYEVEYHVLQDELQESSYSCEDSETLEKLERANSQLKRQNMDLLEKLQVAHTKIQALESNLENLLTRETKMKSLIRTLEQEKMAYQKTVEQLRKLLPADALVNCDLLLRDLNCNPNNKAKIGNKP
